# Data as given in the supplement of paper PMC10032668.
# By UniProt entry, the sequences of proteins in these tests, tags left out.
# SRSF9, Q13242, UniProt Q13242, whole entry: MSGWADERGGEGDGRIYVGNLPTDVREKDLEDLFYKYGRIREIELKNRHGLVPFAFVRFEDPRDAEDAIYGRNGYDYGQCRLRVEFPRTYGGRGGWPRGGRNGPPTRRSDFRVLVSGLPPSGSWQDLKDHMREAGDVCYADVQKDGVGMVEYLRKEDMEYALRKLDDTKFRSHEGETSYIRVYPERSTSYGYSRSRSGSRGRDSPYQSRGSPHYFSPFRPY
# TUBB8, Q3ZCM7, UniProt Q3ZCM7, whole entry: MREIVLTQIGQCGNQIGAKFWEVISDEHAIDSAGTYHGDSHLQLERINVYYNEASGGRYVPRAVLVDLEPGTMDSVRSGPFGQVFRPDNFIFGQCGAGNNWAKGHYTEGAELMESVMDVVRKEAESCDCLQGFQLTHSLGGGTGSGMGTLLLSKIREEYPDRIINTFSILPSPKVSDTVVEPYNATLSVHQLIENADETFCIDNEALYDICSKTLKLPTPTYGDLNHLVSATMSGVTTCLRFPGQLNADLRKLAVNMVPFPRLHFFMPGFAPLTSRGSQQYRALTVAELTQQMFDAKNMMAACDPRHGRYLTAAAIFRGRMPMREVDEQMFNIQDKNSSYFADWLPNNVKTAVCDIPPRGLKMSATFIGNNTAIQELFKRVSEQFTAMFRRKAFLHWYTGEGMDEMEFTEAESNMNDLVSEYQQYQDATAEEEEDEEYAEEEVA
# DLX6, P56179, UniProt P56179, whole entry: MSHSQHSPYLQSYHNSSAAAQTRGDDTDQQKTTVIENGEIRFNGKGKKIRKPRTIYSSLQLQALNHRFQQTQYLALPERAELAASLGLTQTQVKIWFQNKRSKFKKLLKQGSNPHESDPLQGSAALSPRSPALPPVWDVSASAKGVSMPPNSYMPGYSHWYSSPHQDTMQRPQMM
# Some of the results follow. Only hits are listed; about a third recur on repeated control peptides.
# B1: PECAM1 (peptide)
# chain: MARRQN
# B2: MFN2 (peptide)
# chain: MAAARPGR
# B3: RPLP0 (peptide)
# chain: MGVGVTRPELPVSPQ
# B4: CYHR1 (peptide)
# chain: MGTWNLGLLECRA
# How the values were obtained:
# Test in all cases: PRISMA enrichment of interactor (LFQ) in peptide spot vs all other peptide spots (log2 fold change); higher = stronger / more specific binding of the interactor to the peptide
# [1] = biological target: AK6, Q9Y3D8
# Protocol: (§1)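 PRISMA: 221 full-length sORF-encoded peptides (3-15 aa), plus SOS1/GLUT1 control peptides, were spot-synthesized on cellulose membranes in triplicate. Membranes were incubated with HEK293T lysate, and bound proteins were identified by LC-MS/MS with LFQ. Enrichment is the log2 fold change versus all other peptide spots; only significant interactors are listed (cutoff c=6, x0=2.8).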
# [2] = biological target: ANP32B, Q92688
# Protocol: as §1
# [3] = biological target: ANP32E, Q9BTT0
# Protocol: as §1
# [4] = biological target: DDX21, Q9NR30
# Protocol: as §1
# [5] = biological target: EBNA1BP2, Q99848
# Protocol: as §1
# [6] = biological target: EIF6, P56537
# Protocol: as §1
# [7] = biological target: GNL2, Q13823
# Protocol: as §1
# [8] = biological target: GPC4, O75487
# Protocol: as §1
# [9] = biological target: GTPBP4, Q9BZE4
# Protocol: as §1
# [10] = biological target: HTATSF1, O43719
# Protocol: as §1
# [11] = biological target: LARP1, Q6PKG0
# Protocol: as §1
# [12] = biological target: LTV1, Q96GA3
# Protocol: as §1
# [13] = biological target: MOV10, Q9HCE1
# Protocol: as §1
# [14] = biological target: MRPL12, P52815
# Protocol: as §1
# [15] = biological target: MRPS25, P82663
# Protocol: as §1
# [16] = biological target: MRPS26, Q9BYN8
# Protocol: as §1
# [17] = biological target: MRPS27, Q92552
# Protocol: as §1
# [18] = biological target: MRPS31, Q92665
# Protocol: as §1
# [19] = biological target: MRPS9, P82933
# Protocol: as §1
# [20] = biological target: NAT10, Q9H0A0
# Protocol: as §1
# [21] = biological target: NOB1, Q9ULX3
# Protocol: as §1
# [22] = biological target: NOP2, P46087
# Protocol: as §1
# [23] = biological target: PAF1, Q8N7H5
# Protocol: as §1
# [24] = biological target: PTCD3, Q96EY7
# Protocol: as §1
# [25] = biological target: RBM10
# Protocol: as §1
# [26] = biological target: RBM34, P42696
# Protocol: as §1
# [27] = biological target: RCN2, Q14257
# Protocol: as §1
# [28] = biological target: RIOK2, Q9BVS4
# Protocol: as §1
# [29] = biological target: RSL1D1, O76021
# Protocol: as §1
# [30] = biological target: SART3, Q15020
# Protocol: as §1
# [31] = biological target: SRSF9, Q13242
# Protocol: as §1
# [32] = biological target: STAU1, O95793
# Protocol: as §1
# [33] = biological target: SUPT5H, O00267
# Protocol: as §1
# [34] = biological target: UPF1, Q92900
# Protocol: as §1
# [35] = biological target: ANP32A, P39687
# Protocol: as §1
# [36] = biological target: COLGALT1, Q8NBJ5
# Protocol: as §1
# [37] = biological target: DAP3, P51398
# Protocol: as §1
# [38] = biological target: DEF6, Q9H4E7
# Protocol: as §1
# [39] = biological target: HASPIN, Q8TF76
# Protocol: as §1
# [40] = biological target: MAGEB2, O15479
# Protocol: as §1
# [41] = biological target: MRPS35, P82673
# Protocol: as §1
# [42] = biological target: NDUFAB1, O14561
# Protocol: as §1
# [43] = biological target: NOP58, Q9Y2X3
# Protocol: as §1
# [44] = biological target: PLAA, Q9Y263
# Protocol: as §1
# [45] = biological target: RPLP1, P05386
# Protocol: as §1
# [46] = biological target: SRSF1, Q07955
# Protocol: as §1
# [47] = biological target: TAF8, Q7Z7C8
# Protocol: as §1
# [48] = biological target: TRAF2, Q12933
# Protocol: as §1
# [49] = biological target: TUBB8, Q3ZCM7
# Protocol: as §1
# [50] = biological target: AKAP8, O43823
# Protocol: as §1
# [51] = biological target: ALDH2, P05091
# Protocol: as §1
# [52] = biological target: ALKBH2, Q6NS38
# Protocol: as §1
# [53] = biological target: APRT, P07741
# Protocol: as §1
# [54] = biological target: CAND2, O75155
# Protocol: as §1
# [55] = biological target: CHCHD2, Q9Y6H1
# Protocol: as §1
# [56] = biological target: COPS3, Q9UNS2
# Protocol: as §1
# [57] = biological target: CRACR2B, Q8N4Y2
# Protocol: as §1
# [58] = biological target: DUSP3, P51452
# Protocol: as §1
# [59] = biological target: EIF3K, Q9UBQ5
# Protocol: as §1
# [60] = biological target: EXOC4, Q96A65
# Protocol: as §1
# [61] = biological target: FAM50A, Q14320
# Protocol: as §1
# [62] = biological target: HAX1, O00165
# Protocol: as §1
# [63] = biological target: KIF23, Q02241
# Protocol: as §1
# [64] = biological target: MRPL44, Q9H9J2
# Protocol: as §1
# [65] = biological target: NCBP1, Q09161
# Protocol: as §1
# [66] = biological target: NELFB, Q8WX92
# Protocol: as §1
# [67] = biological target: PKN1, Q16512
# Protocol: as §1
# [68] = biological target: PSME3, P61289
# Protocol: as §1
# [69] = biological target: SMARCB1, Q12824
# Protocol: as §1
# [70] = biological target: STRN, O43815
# Protocol: as §1
# [71] = biological target: SUPT6H, Q7KZ85
# Protocol: as §1
# [72] = biological target: TEX264, Q9Y6I9
# Protocol: as §1
# [73] = biological target: YIF1A, O95070
# Protocol: as §1
# [74] = biological target: ZC3H11A, O75152
# Protocol: as §1
# [75] = biological target: AKIRIN1, Q9H9L7
# Protocol: as §1
# [76] = biological target: DLX6, P56179
# Protocol: as §1
# [77] = biological target: ERCC3, P19447
# Protocol: as §1
# [78] = biological target: FBXO21, O94952
# Protocol: as §1
# [79] = biological target: LMBR1, Q8WVP7
# Protocol: as §1
# [80] = biological target: NDUFV1, P49821
# Protocol: as §1
# [81] = biological target: NECAP2, Q9NVZ3
# Protocol: as §1
# [82] = biological target: NUBP2, Q9Y5Y2
# Protocol: as §1
# [83] = biological target: PINX1, Q96BK5
# Protocol: as §1
# [84] = biological target: PPP4R3A, Q6IN85
# Protocol: as §1
# [85] = substrate: SON, P18583
# Protocol: as §1
# [86] = biological target: SPTSSA, Q969W0
# Protocol: as §1
# [87] = biological target: THOC1, Q96FV9
# Protocol: as §1
# [88] = biological target: UBXN1, Q04323
# Protocol: as §1
binder,measurement,setting,value
B1,PRISMA enrichment of interactor (log2),[1],5.14
same,PRISMA enrichment of interactor (log2),[2],5.94
same,PRISMA enrichment of interactor (log2),[3],6.1
same,PRISMA enrichment of interactor (log2),[4],5.78
same,PRISMA enrichment of interactor (log2),[5],5.37
same,PRISMA enrichment of interactor (log2),[6],4.83
same,PRISMA enrichment of interactor (log2),[7],5.25
same,PRISMA enrichment of interactor (log2),[8],5.36
same,PRISMA enrichment of interactor (log2),[9],5.97
same,PRISMA enrichment of interactor (log2),[10],7.02
same,PRISMA enrichment of interactor (log2),[11],6.35
same,PRISMA enrichment of interactor (log2),[12],4.93
same,PRISMA enrichment of interactor (log2),[13],6.17
same,PRISMA enrichment of interactor (log2),[14],4.44
same,PRISMA enrichment of interactor (log2),[15],5.27
same,PRISMA enrichment of interactor (log2),[16],4.84
same,PRISMA enrichment of interactor (log2),[17],5.23
same,PRISMA enrichment of interactor (log2),[18],5.65
same,PRISMA enrichment of interactor (log2),[19],5.69
same,PRISMA enrichment of interactor (log2),[20],5.76
same,PRISMA enrichment of interactor (log2),[21],4.87
same,PRISMA enrichment of interactor (log2),[22],5.39
same,PRISMA enrichment of interactor (log2),[23],5.87
same,PRISMA enrichment of interactor (log2),[24],6.15
same,PRISMA enrichment of interactor (log2),[25],5.75
same,PRISMA enrichment of interactor (log2),[26],5.17
same,PRISMA enrichment of interactor (log2),[27],5.99
same,PRISMA enrichment of interactor (log2),[28],4.48
same,PRISMA enrichment of interactor (log2),[29],4.99
same,PRISMA enrichment of interactor (log2),[30],4.73
same,PRISMA enrichment of interactor (log2),[31],5.67
same,PRISMA enrichment of interactor (log2),[32],5.33
same,PRISMA enrichment of interactor (log2),[33],5.04
same,PRISMA enrichment of interactor (log2),[34],5.27
B2,PRISMA enrichment of interactor (log2),[1],5.46
same,PRISMA enrichment of interactor (log2),[35],5.76
same,PRISMA enrichment of interactor (log2),[3],7.04
same,PRISMA enrichment of interactor (log2),[36],9.23
same,PRISMA enrichment of interactor (log2),[37],5.85
same,PRISMA enrichment of interactor (log2),[38],6.66
same,PRISMA enrichment of interactor (log2),[39],4.06
same,PRISMA enrichment of interactor (log2),[10],5.87
same,PRISMA enrichment of interactor (log2),[11],5.78
same,PRISMA enrichment of interactor (log2),[40],5.24
same,PRISMA enrichment of interactor (log2),[41],5.29
same,PRISMA enrichment of interactor (log2),[19],5.11
same,PRISMA enrichment of interactor (log2),[42],5.16
same,PRISMA enrichment of interactor (log2),[43],7.04
same,PRISMA enrichment of interactor (log2),[23],5.37
same,PRISMA enrichment of interactor (log2),[44],9.72
same,PRISMA enrichment of interactor (log2),[45],6.59
same,PRISMA enrichment of interactor (log2),[46],5.64
same,PRISMA enrichment of interactor (log2),[31],6.35
same,PRISMA enrichment of interactor (log2),[47],4.61
same,PRISMA enrichment of interactor (log2),[48],6.34
same,PRISMA enrichment of interactor (log2),[49],5.55
B3,PRISMA enrichment of interactor (log2),[50],8.73
same,PRISMA enrichment of interactor (log2),[51],5.37
same,PRISMA enrichment of interactor (log2),[52],5.12
same,PRISMA enrichment of interactor (log2),[53],5.52
same,PRISMA enrichment of interactor (log2),[54],4.84
same,PRISMA enrichment of interactor (log2),[55],5.43
same,PRISMA enrichment of interactor (log2),[56],4.36
same,PRISMA enrichment of interactor (log2),[57],4.26
same,PRISMA enrichment of interactor (log2),[58],5.01
same,PRISMA enrichment of interactor (log2),[59],8.67
same,PRISMA enrichment of interactor (log2),[60],3.82
same,PRISMA enrichment of interactor (log2),[61],4.13
same,PRISMA enrichment of interactor (log2),[62],3.66
same,PRISMA enrichment of interactor (log2),[63],4.24
same,PRISMA enrichment of interactor (log2),[64],5.8
same,PRISMA enrichment of interactor (log2),[65],5.48
same,PRISMA enrichment of interactor (log2),[66],4.84
same,PRISMA enrichment of interactor (log2),[67],5.6
same,PRISMA enrichment of interactor (log2),[68],4.64
same,PRISMA enrichment of interactor (log2),[69],7.09
same,PRISMA enrichment of interactor (log2),[70],6.45
same,PRISMA enrichment of interactor (log2),[71],6.51
same,PRISMA enrichment of interactor (log2),[72],5.26
same,PRISMA enrichment of interactor (log2),[73],6.02
same,PRISMA enrichment of interactor (log2),[74],5.86
B4,PRISMA enrichment of interactor (log2),[75],13.3
same,PRISMA enrichment of interactor (log2),[76],5.67
same,PRISMA enrichment of interactor (log2),[77],5.25
same,PRISMA enrichment of interactor (log2),[78],5.04
same,PRISMA enrichment of interactor (log2),[79],5.69
same,PRISMA enrichment of interactor (log2),[80],5.58
same,PRISMA enrichment of interactor (log2),[81],7.54
same,PRISMA enrichment of interactor (log2),[82],10.2
same,PRISMA enrichment of interactor (log2),[83],5.99
same,PRISMA enrichment of interactor (log2),[84],4.26
same,PRISMA enrichment of interactor (log2),[85],4.65
same,PRISMA enrichment of interactor (log2),[86],6.04
same,PRISMA enrichment of interactor (log2),[87],7.75
same,PRISMA enrichment of interactor (log2),[88],6.81

# Some of the entries above in a different format.
binder	measurement	setting	value
B2	PRISMA enrichment of interactor (log2)	[35]	5.76
same	PRISMA enrichment of interactor (log2)	[31]	6.35
B4	PRISMA enrichment of interactor (log2)	[78]	5.04
same	PRISMA enrichment of interactor (log2)	[80]	5.58
